# Source: the supplement of paper PMC4749390
# Where a name gives a salt, the structure may show the parent alone. The list shows a part of the results. Single values are uncertain here, since repeats match poorly.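 Wild-type human LRH-1, a heavily sumoylated nuclear receptor, is tetracycline-inducible in stable JEG3 cells. RT-qPCR measured SUMO-sensitive APOC3 and MUC1 transcripts, which rise with SUMO-less LRH-1 or UBC9 knockdown, versus TBP and DMSO controls. Robust Z-scores beyond ±2 flagged primary hits, followed by toxicity and TBP filtering.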
# System: JEG3 expressing hLRH-1
# Test: APOC3 transcript change (ddCt vs TBP and DMSO), Z-score over library; higher = higher APOC3 expression
# Conditions: 10 µM; time (hr): 24
row,SMILES,APOC3 transcript change (Z-score)
1,CC(=O)Nc1ccc(OC(=O)c2ccccc2O)cc1 [acetaminosalol],-0.711
2,OCc1ccccc1O[C@@H]1O[C@H](CO)[C@@H](O)[C@H](O)[C@H]1O [salicin],3.18
3,N[C@H]1CONC1=O [levcycloserine],-0.56
4,N#CC(c1ccc(Cl)cc1)c1c(Cl)cc(-n2ncc(=O)[nH]c2=O)cc1Cl (stereo not drawn) [diclazuril],-0.698
5,CC1CCC(NC(=O)N(CCCl)N=O)CC1 (stereo not drawn) [semustine],0.596
6,CC(C)(CO)[C@@H](O)C(=O)NCCC(=O)O [pantothenic acid(d) na salt],-0.0616
7,CC(Cc1cccc(C(F)(F)F)c1)NCCOC(=O)c1ccccc1 (stereo not drawn) [benfluorex hydrochloride],-0.455
8,CC(C)(C)CC(C)(C)c1ccc(OCCOCC[N+](C)(C)Cc2ccccc2)cc1 [benzethonium chloride],-2
9,C=C1CC[C@H](O)C/C1=C/C=C1\CCC[C@]2(C)[C@@H]([C@H](C)/C=C/[C@H](C)C(C)C)CC[C@@H]12 [ergocalciferol],1.08
10,O=C(COc1ccc(Cl)cc1)N1CCN(Cc2ccc3c(c2)OCO3)CC1 [fipexide hydrochloride],0.278
11,N=C(N)Nc1nc(CSCCC(=N)NS(N)(=O)=O)cs1 [famotidine],-0.123
12,CN(CCOc1ccc(CC2SC(=O)NC2=O)cc1)c1ccccn1 (stereo not drawn) [rosiglitazone],-1.51
13,CC(C)(C)NC(=O)[C@H]1CC[C@H]2[C@@H]3CC[C@H]4NC(=O)C=C[C@]4(C)[C@H]3CC[C@]12C [finasteride],1.46
14,CC(C)[N+](C)(CCOC(=O)C1c2ccccc2Oc2ccccc21)C(C)C [propantheline bromide],-0.187
15,CC/C=C\C/C=C\C/C=C\C/C=C\C/C=C\C/C=C\CCC(=O)O [doconexent],-0.589
16,O=c1oc2cc(O)ccc2s1 [thioxolone],-0.617
17,CC(C)NCC(O)COc1cccc2[nH]ccc12 (stereo not drawn) [Pindolol],0.221
18,C[C@H](CS)C(=O)N1CCC[C@H]1C(=O)O [Captopril],0.0668
19,C[C@]12C=CC(=O)C=C1CCC1C2[C@@H](O)C[C@@]2(C)C1CC[C@]2(O)C(=O)CO (stereo partly drawn) [prednisolone],0.553
20,Cc1ccsc1/C=C/C1=NCCCN1C [morantel citrate],0.411
21,NCCc1ccc(O)c(O)c1 [Dopamine hydrochloride],0.468
22,CCCCC1C(=O)N(c2ccccc2)N(c2ccccc2)C1=O [Phenylbutazone],-0.0448
23,COc1ccc2[nH]c(S(=O)Cc3ncc(C)c(OC)c3C)nc2n1 (stereo not drawn) [tenatoprazole],-0.401
24,Oc1nc2ccccc2n1C1CCN(CCCC(c2ccc(F)cc2)c2ccc(F)cc2)CC1 [Pimozide],1.26
25,Cc1c(Nc2ncccc2C(=O)O)cccc1C(F)(F)F [flunixin meglumine],-1.27
26,CCN1CCN(c2cc3c(cc2F)c(=O)c(C(=O)O)cn3C2CC2)CC1 [enrofloxacin],0.712

# A second format for 2 compounds above.
row	SMILES	APOC3 transcript change (Z-score)
20	Cc1ccsc1/C=C/C1=NCCCN1C [morantel citrate]	0.411
21	NCCc1ccc(O)c(O)c1 [Dopamine hydrochloride]	0.468

# (cont.)

row,SMILES,APOC3 transcript change (Z-score)
1,CC(=O)Nc1ccc(C(=O)O)cc1 [acedoben],-0.544
2,CCN(CC)CCOCCOC(=O)C1(c2ccccc2)CCCC1 [Carbetapentane citrate],-0.278
3,CC1OC(O[C@H]2/C=C/C=C/C=C/C=C/C=C/C=C/C=C/[C@H](C)[C@@H](O)[C@@H](C)[C@H](C)OC(=O)CC(O)CC(O)CCC(O)C(O)CC(O)C[C@]3(O)C[C@H](O)C(C(=O)O)C(C2)O3)C(O)[C@H](N)C1O (stereo partly drawn) [amphotericin b],0.162
4,O=C1C(O)=C(O)C(=O)C(O)=C1O [tetroquinone],-0.271
5,O=C1c2ccccc2C(=O)C1c1ccc(Cl)cc1 [chlorindione],-1.22
6,O=C(O)CCC(=O)Nc1ccc(S(=O)(=O)Nc2nccs2)cc1 [succinylsulfathiazole],0.574
7,C[C@]12C=CC(=O)C=C1CCC1C2[C@@H](O)C[C@@]2(C)C1CC[C@]2(O)C(=O)COP(=O)(O)O (stereo partly drawn) [prednisolone sodium phosphate],1.56
8,CN(C)c1nc(N(C)C)nc(N(C)C)n1 [altretamine],-0.208
9,NNC(=O)c1ccncc1 [isoniazid],0.489
10,N[C@@H](COP(=O)(O)O)C(=O)O [O-Phospho-L-serine],-0.749
11,COc1cccc(OC)c1C(=O)N[C@@H]1C(=O)N2[C@@H]1SC(C)(C)[C@@H]2C(=O)O [methicillin sodium],-0.0886
12,Nc1cc(C(Cl)=C(Cl)Cl)c(S(N)(=O)=O)cc1S(N)(=O)=O [clorsulon],-0.139
13,CC1(C)OC(=O)C(OCC2CC2)=C1c1ccc(S(C)(=O)=O)cc1 [firocoxib],0.422
14,CCOc1ccc(Cc2nccc3cc(OCC)c(OCC)cc23)cc1OCC [ethaverine hydrochloride],2.03
15,C#C[C@]1(O)CC[C@H]2[C@@H]3CCC4=Cc5oncc5C[C@]4(C)[C@H]3CC[C@@]21C [danazol],-0.0846
16,NC[C@H]1O[C@H](OC2[C@@H](N)C[C@@H](N)[C@H](O[C@H]3O[C@H](CO)[C@@H](O)[C@H](N)[C@H]3O)[C@H]2O)[C@H](O)[C@@H](O)[C@@H]1O (stereo partly drawn) [kanamycin sulfate],-0.143
17,CC12CC3CC(C)(C1)CC(N)(C3)C2 [Memantine hydrochloride],-0.752
18,C=C(CC)C(=O)c1ccc(OCC(=O)O)c(Cl)c1Cl [ethacrynic acid],-0.172
19,c1ccc2[nH]c(-c3cscn3)nc2c1 [thiabendazole],1.43
20,CCC[C@@H]1C[C@@H](C(=O)N[C@@H]([C@H]2O[C@H](SC)[C@H](O)[C@@H](O)[C@H]2O)[C@@H](C)O)N(C)C1 [lincomycin hydrochloride],0.548
21,CCOC(=O)[N-]c1c[n+](N2CCOCC2)no1 [molsidomine],-1.16
22,CCN(CC)CCNc1ccc(CO)c2sc3ccccc3c(=O)c12 [hycanthone],2.88
23,Cn1c(=O)c2c(ncn2CC2OCCO2)n(C)c1=O [doxofylline],0.33
24,CCCCC1(COC(=O)CCC(=O)O)C(=O)N(c2ccccc2)N(c2ccccc2)C1=O [suxibuzone],-0.0245
25,CC(CCC(=O)O)[C@H]1CCC2C3C(=O)C[C@@H]4CC(=O)CC[C@]4(C)C3CC(=O)[C@@]21C (stereo partly drawn) [dehydrocholic acid],-0.21
26,O=C(O)C[C@H](O)C[C@H](O)/C=C/c1c(C2CC2)nc2ccccc2c1-c1ccc(F)cc1 [pitavastatin calcium],1.12

row,SMILES,APOC3 transcript change (Z-score)
1,C=C(C)C1CC=C(C)CC1 (stereo not drawn) [d-limonene],-1.52
2,CCN(CC)CCNC(=O)c1cc(Br)c(N)cc1OC [bromopride],-1.22
3,CN(C)CCN(Cc1ccccc1)c1ccccn1 [Tripelennamine hydrochloride],0.211
4,CC1(C)O[C@]2(C)CC[C@H]1CC2 [eucalyptol],0.667
5,O=[N+]([O-])c1ccc(O)c2ncccc12 [nitroxoline],-1.09
6,COc1c2ccoc2cc2oc(=O)ccc12 [bergapten],-0.215
7,CC(C)NNC(=O)c1ccncc1 [Iproniazid phosphate],-0.777
8,COCCCOc1ccnc(CS(=O)c2nc3ccccc3[nH]2)c1C (stereo not drawn) [rabeprazole sodium],0.406
9,CN1CCN(c2c(F)cc3c(=O)c(C(=O)O)cn4c3c2SCC4)CC1 [rufloxacin hydrochloride],0.526
10,[O-][n+]1cccc(CO)c1 [mepiroxol],-0.156
11,CN(C)CCc1c[nH]c2ccc(CS(=O)(=O)N3CCCC3)cc12 [almotriptan],-0.446
12,N[C@@H](Cc1ccc(O)c(O)c1)C(=O)O [levodopa],0.181
13,NC(=O)c1ccc[n+]([C@@H]2O[C@H](COP(=O)([O-])OP(=O)(O)OC[C@H]3O[C@@H](n4cnc5c(N)ncnc54)[C@H](O)[C@@H]3O)[C@@H](O)[C@H]2O)c1 [nadide],0.26
14,CO[C@H]1C[C@H](O[C@@H]2/C(C)=C/C[C@@H]3C[C@@H](C[C@]4(CC[C@H](C)[C@@H](C5CCCCC5)O4)O3)OC(=O)[C@@H]3C=C(C)/C(=N/O)[C@H]4OC/C(=C\C=C\[C@@H]2C)[C@]43O)O[C@@H](C)[C@@H]1O [selamectin],1.38
15,Oc1ccnc(O)n1 [uracil],0.656
16,NC[C@@H]1O[C@H](O[C@H]2[C@@H](O)[C@H](O[C@@H]3[C@@H](O)[C@H](N)C[C@H](N)[C@H]3O[C@H]3O[C@H](CN)[C@@H](O)[C@H](O)[C@H]3N)O[C@@H]2CO)[C@H](N)[C@@H](O)[C@@H]1O [neomycin sulfate],0.567
17,CCC1(C)CC(=O)NC1=O (stereo not drawn) [ethosuximide],0.638
18,Cc1onc(-c2ccccc2Cl)c1C(=O)N[C@@H]1C(=O)N2[C@@H]1SC(C)(C)[C@@H]2C(=O)O [cloxacillin sodium],-1.21
19,NC(Cc1ccc(Cl)cc1)C(=O)O (racemic) [(±)-p-Chlorophenylalanine],1.42
20,CC(=O)c1ccc(S(=O)(=O)NC(=O)NC2CCCCC2)cc1 [Acetohexamide],-0.0496
21,O=C(O)CN1C(=O)c2cccc3cccc(c23)C1=O [alrestatin],-0.0133
22,CCCNC(C)(C)COC(=O)c1ccccc1 [meprylcaine hydrochloride],0.648
23,O=C1c2c(O)ccc(O)c2C(=O)c2c(NCCNCCO)ccc(NCCNCCO)c21 [mitoxanthrone hydrochloride],4.1
24,CC(O)(CC(=O)O)CC(=O)O [meglutol],-0.258
25,N=C(N)/N=C(\N)N1CCOCC1 [moroxydine hydrochloride],-0.574
26,CCn1cc(C(=O)O)c(=O)c2cnc(N3CCCC3)nc21 [piromidic acid],0.819

# Entries above that contain a carbonyl joined to an NH by a bond outside any ring:
row,SMILES,APOC3 transcript change (Z-score)
1,CC(=O)Nc1ccc(OC(=O)c2ccccc2O)cc1 [acetaminosalol],-0.711
5,CC1CCC(NC(=O)N(CCCl)N=O)CC1 (stereo not drawn) [semustine],0.596
6,CC(C)(CO)[C@@H](O)C(=O)NCCC(=O)O [pantothenic acid(d) na salt],-0.0616
13,CC(C)(C)NC(=O)[C@H]1CC[C@H]2[C@@H]3CC[C@H]4NC(=O)C=C[C@]4(C)[C@H]3CC[C@]12C [finasteride],1.46
1,CC(=O)Nc1ccc(C(=O)O)cc1 [acedoben],-0.544
6,O=C(O)CCC(=O)Nc1ccc(S(=O)(=O)Nc2nccs2)cc1 [succinylsulfathiazole],0.574
9,NNC(=O)c1ccncc1 [isoniazid],0.489
11,COc1cccc(OC)c1C(=O)N[C@@H]1C(=O)N2[C@@H]1SC(C)(C)[C@@H]2C(=O)O [methicillin sodium],-0.0886
20,CCC[C@@H]1C[C@@H](C(=O)N[C@@H]([C@H]2O[C@H](SC)[C@H](O)[C@@H](O)[C@H]2O)[C@@H](C)O)N(C)C1 [lincomycin hydrochloride],0.548
2,CCN(CC)CCNC(=O)c1cc(Br)c(N)cc1OC [bromopride],-1.22
7,CC(C)NNC(=O)c1ccncc1 [Iproniazid phosphate],-0.777
13,NC(=O)c1ccc[n+]([C@@H]2O[C@H](COP(=O)([O-])OP(=O)(O)OC[C@H]3O[C@@H](n4cnc5c(N)ncnc54)[C@H](O)[C@@H]3O)[C@@H](O)[C@H]2O)c1 [nadide],0.26
18,Cc1onc(-c2ccccc2Cl)c1C(=O)N[C@@H]1C(=O)N2[C@@H]1SC(C)(C)[C@@H]2C(=O)O [cloxacillin sodium],-1.21
20,CC(=O)c1ccc(S(=O)(=O)NC(=O)NC2CCCCC2)cc1 [Acetohexamide],-0.0496
